Results on two substances are retold here after publication PMC9095979, “Optimization of eIF4E-Binding Peptide Pep8 to Disrupt the RBM38-eIF4E Complex for Induction of p53 and Tumor Suppression” (Frontiers in Oncology, 2022).

The chains behind the UniProt entries cited, without tags or fusion partners.
UniProt P06730: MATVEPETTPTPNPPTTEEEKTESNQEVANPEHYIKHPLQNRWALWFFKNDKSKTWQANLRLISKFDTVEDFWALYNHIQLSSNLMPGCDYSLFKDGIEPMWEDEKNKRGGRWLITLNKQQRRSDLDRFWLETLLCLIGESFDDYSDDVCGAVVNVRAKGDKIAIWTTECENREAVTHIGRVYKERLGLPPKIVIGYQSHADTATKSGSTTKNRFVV

One experiment deals with T1, GST-RBM38 (UniProt Q9H0Z9).
T1 sequence: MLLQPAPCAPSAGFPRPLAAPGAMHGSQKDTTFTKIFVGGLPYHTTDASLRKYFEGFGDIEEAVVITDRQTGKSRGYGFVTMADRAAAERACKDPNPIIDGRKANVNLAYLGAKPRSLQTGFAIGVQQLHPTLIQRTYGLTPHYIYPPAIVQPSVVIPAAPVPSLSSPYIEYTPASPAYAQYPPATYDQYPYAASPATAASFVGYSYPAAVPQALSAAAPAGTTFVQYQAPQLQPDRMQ
Nature of the experiment: pull-down; competitive: GST-RBM38 on GST beads, 250 µg purified eIF4E and 10 µM peptide in lysis buffer (50 mM Tris pH 7.5, 150 mM NaCl, 0.1% Triton X-100), rocked overnight, washed 3x, western blot; both purified. In general terms: In western blotting, separated proteins are transferred to a membrane and probed.

The target of another experiment is T2, Pep8 (human).
T2 sequence (peptide, conjugated to TentaGel resin): YPYAASPA
The experiment can be described thus: pull-down; peptides conjugated to TentaGel resins, eIF4E detected by immunoblot; conditions not given.

No constants are given. Whether binding was seen depends on the method and setting. For some assays here: In cells and extracts the contact can be indirect. Some results given as binding are weak or reduced against the parent protein; the word gives no strength. For some assays here: Where a sequence is shown, tags or fusion partners need not be part of it.

As for “eIF4E (purified, from pTXB1-eIF4E) (from UniProt P06730 1-217)”, the binding result with GST-RBM38 is given as “binds”. Consider “eIF4E (in the pull-down with TentaGel-bound peptides) (from UniProt P06730 1-217)”, for which the binding entry in the experiment with Pep8 (human) is recorded as “binds”.
